Measurements published in PubChem BioAssay AID296 (DTP/NCI, 2004).
The list does not hold the whole screen: it covers a few groups of compounds. Other doses and runs of a compound may be missing. T/C is the treated group as % of the vehicle group. Schedules are NCI's codes, taken here to give the interval after Q, in days (D) or hours (H), and the number of doses after X. Some entries show no survivor count and are marked so; the dose need not have been tolerated. Some values lie below zero, which means that the treated tumours became smaller. Some entries were tested several times; the values are given in rising order.

Tested on: MX-1 breast xenograft, nude mice, tumor weight T/C
Test: NCI In Vivo Anticancer Drug Screen. Data for tumor model Human Mammary Carcinoma MX-1 Xenograft (intrarenal inoculation) in NU/NU Swiss (nude) mice
Conditions: T/C endpoint: mean tumor weight change, evaluated on day 11, higher T/C = larger tumour
Description: The antitumor activity of compounds was measured in mice bearing transplantable tumors. Survival or tumor size were measured and the results are expressed as the measurement made in the treated group (T) divided by the measurement made in the vehicle treated control group (C). The tumor model used in this assay is Human Mammary Carcinoma MX-1 Xenograft (intrarenal inoculation) in NU/NU Swiss (nude) mice

[1] = dose: 0.12 mg/kg/injection, schedule: Q01DX010 (sc), vehicle: Klucel (hydroxypropylcellulose) (HPC)
[2] = dose: 0.25 mg/kg/injection, schedule: Q01DX010 (sc), vehicle: Klucel (hydroxypropylcellulose) (HPC)
[3] = dose: 0.5 mg/kg/injection, schedule: Q01DX010 (sc), vehicle: Klucel (hydroxypropylcellulose) (HPC)
[4] = dose: 1.0 mg/kg/injection, schedule: Q01DX010 (sc), vehicle: Klucel (hydroxypropylcellulose) (HPC)

C[C@@H](O)[C@H]1/C=C/C=C\C(=O)O[C@@H]2C[C@H]3O[C@@H]4[C@@H]5OC5(C)CCC4(COC(=O)[C@H]4O[C@]4(C)[C@@H](O)CO1)[C@]2(C)[C@]31CO1 (stereo partly specified)
T/C (dose: 2.5 mg/kg/injection, schedule: Q01DX010 (sc), vehicle: saline + alcohol): 165 % of control [survivor count not shown] | T/C (dose: 5.0 mg/kg/injection, schedule: Q01DX010 (sc), vehicle: saline + alcohol): 120 [survivor count not shown] and 273 % of control [survivor count not shown] | T/C (dose: 10.0 mg/kg/injection, schedule: Q01DX010 (sc), vehicle: saline + alcohol): -48 [survivor count not shown], 78 [survivor count not shown], 166 % of control [survivor count not shown] | T/C (dose: 20.0 mg/kg/injection, schedule: Q01DX010 (sc), vehicle: saline + alcohol): 61 [survivor count not shown] and 65 % of control [survivor count not shown] | T/C (dose: 40.0 mg/kg/injection, schedule: Q01DX010 (sc), vehicle: saline + alcohol): 55 % of control [survivor count not shown]

C=C(C)C(=O)OCC12CCC(C)=CC1OC1C(=O)C(OC(=O)C(=C)C)C2(C)C12CO2 (stereo unspecified)
T/C (dose: 4.0 mg/kg/injection, schedule: Q04DX003 (sc), vehicle: saline with Tween-80): 98 % of control [survivor count not shown] | T/C (dose: 8.0 mg/kg/injection, schedule: Q04DX003 (sc), vehicle: saline with Tween-80): 102 % of control [survivor count not shown]

CC(=O)OC[C@]12CC(=O)C(C)=C[C@H]1O[C@@H]1C(=O)[C@@H](OC(C)=O)[C@@]2(C)[C@@]12CO2
T/C (dose: 2.0 mg/kg/injection, schedule: Q04DX003 (sc), vehicle: water): 72 % of control [survivor count not shown]

CC(=O)OCC12CCC(C)=CC1OC1C(O)C(OC(C)=O)C2(C)C12CO2 (stereo unspecified)
T/C (dose: 0.13 mg/kg/injection, schedule: Q01DX010 (sc), vehicle: saline): 140 % of control [survivor count not shown] | T/C (dose: 0.25 mg/kg/injection, schedule: Q01DX010 (sc), vehicle: saline): 128 % of control [survivor count not shown]

CC1=C[C@H]2O[C@@H]3C[C@H]4OC(=O)/C=C\C=C\C(C(C)O)OCC(O)C(C)CC(=O)OC[C@@]2(C[C@@H]1O)[C@]4(C)[C@@]31CO1 (stereo partly specified)
T/C [1]: 55 % of control [survivor count not shown] | T/C [2]: 32 [survivor count not shown] and 80 % of control [survivor count not shown] | T/C [3]: 91 [survivor count not shown] and 113 % of control [survivor count not shown] | T/C [4]: -29 [survivor count not shown], 16 [survivor count not shown], 37 [survivor count not shown], 128 % of control [survivor count not shown] | T/C (dose: 2.0 mg/kg/injection, schedule: Q01DX010 (sc), vehicle: Klucel (hydroxypropylcellulose) (HPC)): 34 [survivor count not shown] and 47 % of control [survivor count not shown]

CC1=C[C@H]2O[C@@H]3[C@H](O)[C@@H](O)[C@](C)([C@@]2(CO)CC1)[C@@]31CO1
T/C (dose: 2.0 mg/kg/injection, schedule: Q01DX010 (sc), vehicle: saline): 163 % of control [survivor count not shown]

CC1=CC2OC3CC4OC(=O)/C=C/C=C/C(C(C)O)OCC(O)C(C)CC(=O)OCC2(CC1O)C4(C)C31CO1 (stereo unspecified)
T/C (dose: 0.06 mg/kg/injection, schedule: Q01DX010 (sc), vehicle: Klucel (hydroxypropylcellulose) (HPC)): 491 % of control [survivor count not shown] | T/C [1]: 509 % of control [survivor count not shown] | T/C [2]: 97 % of control [survivor count not shown] | T/C [3]: 124 [survivor count not shown] and 240 % of control [survivor count not shown] | T/C [4]: 60 % of control [survivor count not shown]
